{
  "sequences": {"note": "Sequences of proteins named here, by UniProt entry; tags and fusion partners are left off.", "UniProt P61073": "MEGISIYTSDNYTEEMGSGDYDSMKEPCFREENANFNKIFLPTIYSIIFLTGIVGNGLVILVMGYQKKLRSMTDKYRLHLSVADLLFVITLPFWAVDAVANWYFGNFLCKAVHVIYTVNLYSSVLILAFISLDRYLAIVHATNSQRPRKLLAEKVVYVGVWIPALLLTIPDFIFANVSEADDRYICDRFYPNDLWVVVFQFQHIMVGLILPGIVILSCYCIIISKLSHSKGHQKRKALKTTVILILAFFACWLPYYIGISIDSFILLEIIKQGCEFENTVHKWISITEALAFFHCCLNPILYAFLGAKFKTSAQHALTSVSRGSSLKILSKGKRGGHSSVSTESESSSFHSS"},
  "source": "patent US20030167129A1",
  "about": "“Binding compounds and methods for identifying binding compounds” (priority 2000, published 2003)",
  "biological_target": "CXCR4-GST (human) (UniProt P61073)",
  "assay": "phage display (NEB PhD C7C) on immobilized functional CXCR4, elution with SDF1α or glycine pH 2.2",
  "note": "No constants are given. Whether binding was seen depends on the method and setting. Some entries that bind do so weakly or less than the wild type.",
  "data": [
    {"binder": "SLTEPSL", "note": "[Phage sequence S-L-T-E-P-S-L]", "values": [
      {"measurement": "binding", "result": "binds"}
    ]}
  ]
}
